According to PubChem BioAssay AID1665 (Sanford-Burnham Center for Chemical Genomics, 2009):
The list shows a part of the results.

Assay: modulators of beta-catenin nuclear translocation, primary screen, imaging, HeLa cells, immunofluorescence, high-content (AID 1665)
Settings: measured here: cell count, cytotoxicity flag, at 5 µM

Structure (SMILES)	cell count
O=[N+]([O-])c1cc([N+](=O)[O-])c(Nc2nnnn2CCO)c([N+](=O)[O-])c1	1270 cells
CN(C)C1(CNC(=O)c2ccc(S(C)(=O)=O)cc2)CCCCC1	1080 cells
O=C(/C=C/c1ccccc1)OC1CN2CCC1CC2 (centres undefined)	1020 cells
CC1CCC(C(C)C)C(OP(=O)(Nc2ccccn2)c2ccccc2)C1 (centres undefined)	1000 cells
COc1cc(C2NCCC3(OCCO3)C2(C)C)cc(OC)c1OC.O=[N+]([O-])c1cc([N+](=O)[O-])c(O)c([N+](=O)[O-])c1 (centres undefined)	1040 cells
CN(C(=O)Cc1ccc(Cl)c(Cl)c1)[C@@H]1CCCC[C@H]1N1CCCC1	1170 cells
CC(C)/C=N\N=C(\N)N[N+](=O)[O-]	978 cells
Cc1nc2ccc3ccccc3c2s1.O=[N+]([O-])c1cc([N+](=O)[O-])c(O)c([N+](=O)[O-])c1	1110 cells
O=[As](O)(c1ccccc1Br)c1ccccc1Br	1170 cells
CC(C)(C)C(=O)NC(Sc1ncccn1)C(Cl)(Cl)Cl (centres undefined)	1110 cells
Clc1n[nH]nc1-c1nn[nH][15n]1	1400 cells
O=[N+]([O-])c1cc([N+](=O)[O-])c(-n2nnc3ccccc32)c([N+](=O)[O-])c1	911 cells
O=P1(Nc2ccccn2)COc2ccccc2OC1	1180 cells
CCOP(=O)(Nc1ccc(C)cn1)OCC	1340 cells
CCOP(=O)(Nc1cccc2ccccc12)OCC	519 cells
Nc1cccc2c([As](=O)(O)O)cccc12	1170 cells
Cc1ccc(NCCc2c([N+](=O)[O-])cc([N+](=O)[O-])cc2[N+](=O)[O-])cc1	1090 cells
CP(=O)(Nc1cccc(Br)c1)Oc1ccccc1 (centres undefined)	1070 cells
CCCOP(=S)(Nc1nc(N)cc(=O)[nH]1)OCCC	1400 cells
Cc1ccc(C)c(NP(C)(=O)Oc2ccccc2)c1 (centres undefined)	769 cells
O=[As](O)(c1cccc(O)c1)c1cccc(O)c1	1240 cells
Cc1cccc(OCC(=O)OC2CN3CCC2CC3)c1 (centres undefined)	1040 cells
CCOC(=O)c1ccc(NP(C)(=O)Oc2cc(C)cc(C)c2)cc1 (centres undefined)	1030 cells
O=C(OC1CN2CCC1CC2)c1ccc(Cl)cc1 (centres undefined)	1340 cells
COc1ccccc1OP(C)(=O)Nc1cccc(Br)c1 (centres undefined)	1270 cells
COc1cc(C(=O)NCC2(N3CCOCC3)CCCCC2)cc(Cl)c1OC(C)C	1140 cells
O=[As](O)(O)c1cccnc1	1340 cells

Structure (SMILES)	cell count
CN(C(=O)Cc1ccccc1)[C@@H]1CC[C@]2(CCCO2)C[C@H]1N1CCCC1	1140 cells
CCOP1(=S)c2c(C)nn(CCC#N)c2N=C(c2ccc(F)cc2)N1C (centres undefined)	1160 cells
CC1=NCCc2c1[nH]c1ccccc21.O=[N+]([O-])c1cc([N+](=O)[O-])c(O)c([N+](=O)[O-])c1	838 cells
O=[N+]([O-])c1ccc2c(c1)nnn2O	1240 cells
NC(=O)Nc1ccc([As](=O)(O)O)cc1	1140 cells
O=C(O)COc1ccc([As](=O)(O)O)cc1[N+](=O)[O-]	1260 cells
Nc1ccccc1[As](=O)(O)c1ccccc1	1360 cells
O=P(Nc1nccs1)(c1ccccc1)c1nc2ccccc2s1 (centres undefined)	1080 cells
O=P(Nc1nccs1)(Oc1ccccc1)Oc1ccccc1	559 cells
O=C(O)c1cccc(Nc2c([N+](=O)[O-])cc([N+](=O)[O-])cc2[N+](=O)[O-])c1	1340 cells
CS(=O)(=O)c1cc([N+](=O)[O-])c2no[n+]([O-])c2c1	1310 cells
O=[N+]([O-])c1cc([N+](=O)[O-])c(-c2ccn[nH]2)s1	440 cells
CCN(CC)C(=S)SC(NC=O)C(Cl)(Cl)Cl (centres undefined)	999 cells
CC(C)NC(=O)NP(=O)(Oc1ccccc1)Oc1ccccc1	1100 cells
COc1ccccc1OP(C)(=O)Nc1cc(Cl)ccc1C (centres undefined)	880 cells
Cc1cc(C)cc(OP(C)(N)=O)c1 (centres undefined)	1090 cells
ClCCSc1nnc(-c2cccnc2)o1	940 cells
CCOC(=O)c1ccc(NP(C)(=O)Oc2ccccc2)cc1 (centres undefined)	581 cells
CC(C)c1ccc(OP(=O)(Nc2ccccn2)Oc2ccccc2F)cc1 (centres undefined)	1330 cells
Cc1ccc(NP(C)(=O)Oc2ccccc2)c(C)c1 (centres undefined)	1120 cells
Cc1cccc(C)c1OP(C)(N)=O (centres undefined)	1100 cells
CC(C)(C)c1ccc(OP(C)(=O)Nc2ccc(SC(F)(F)F)cc2)cc1 (centres undefined)	1100 cells
Cc1ccc(OP(=O)(Nc2ccc([N+](=O)[O-])cn2)Oc2ccc(C)cc2)cc1	1150 cells
Cc1ccc2nc3c(c(C)c2c1)CC(C(Cl)Cl)S3 (centres undefined)	1160 cells
O=[N+]([O-])c1ccc2c(c1)C=Nc1ccccc1O2	1110 cells
C[As](=O)(O)c1cccc(C(=O)O)c1	1100 cells
O=[As](O)(c1ccc(O)cc1)c1ccccc1O	1390 cells

Structure (SMILES)	cell count
COc1ccc(N/C(=N/P(=O)(N2CCOCC2)N2CCOCC2)N2CCOCC2)cc1	1110 cells
COc1cc(I)ccc1[As](=O)(O)O	1300 cells
COc1ccc2nc(NP(=O)(c3ccccc3)c3ccccc3)sc2c1	1090 cells
Cc1c2c(nc3ccccc13)SC(C(Cl)Cl)C2 (centres undefined)	1220 cells
CCN(CC)CCCOC(=O)C(O)(c1ccccc1)c1ccccc1	1150 cells
Cc1cc(=O)[nH]c(N[N+](=O)[O-])n1	1060 cells
O=C(OC1CN2CCC1CC2)C12CC3CC(CC(C3)C1)C2 (centres undefined)	1140 cells
CCC(C)N(CC(C)C)C(=S)SC(NC(C)=O)C(Cl)(Cl)Cl (centres undefined)	572 cells
CP(=O)(Nc1ccccn1)Oc1ccc(Cl)cc1 (centres undefined)	1150 cells
CCOP(C)(=S)SCC(=O)NC(C)C(=O)O (centres undefined)	933 cells
CCOC(=O)c1ccc(NC(=O)C(C)(CCl)SC)cc1 (centres undefined)	1310 cells
Cc1cc(C)cc(OP(C)(=O)Nc2ccc(SC(F)(F)F)cc2)c1 (centres undefined)	1140 cells
CCc1ccc(OP(C)(=O)N2CCN(c3ccc([N+](=O)[O-])cc3)CC2)cc1 (centres undefined)	1320 cells
CP(=O)(NC(=O)Nc1ccccc1)Oc1ccccc1 (centres undefined)	1120 cells
O=C(COc1ccccc1)OC1CN2CCC1CC2 (centres undefined)	1180 cells
CP(=O)(Oc1ccccc1)OC(c1ccccc1)C(F)(F)F (centres undefined)	1050 cells
CP(=O)(Nc1ccc(SC(F)(F)F)cc1)Oc1ccc(Cl)cc1 (centres undefined)	1360 cells
Cc1cccc(C)c1OP(C)(=O)Nc1ccc(SC(F)(F)F)cc1 (centres undefined)	1120 cells
COc1ccccc1OP(C)(=O)Nc1ccccc1 (centres undefined)	1090 cells
Cc1cc(SC(NC=O)C(Cl)(Cl)Cl)ncn1 (centres undefined)	1140 cells
O=P(Nc1ccccn1)(c1cccc2ccccc12)c1cccc2ccccc12	1590 cells
O=[N+]([O-])c1ccc(Nc2ccc(Oc3ccc([N+](=O)[O-])cc3[N+](=O)[O-])cc2)c([N+](=O)[O-])c1	1240 cells
CCOC(=O)Nc1cccc([As](=O)(O)O)c1	1060 cells
Cc1cc(SC(NC(=O)c2ccccc2)C(Cl)(Cl)Cl)nc(C(C)C)n1 (centres undefined)	1010 cells
CCOC(=O)Nc1ccc([As](=O)(O)O)c(O)c1	1270 cells
